Experimental data published in article PMC6117920, “Chitinase 3-like 1-CD44 interaction promotes metastasis and epithelial-to-mesenchymal transition through β-catenin/Erk/Akt signaling in gastric cancer” (Journal of Experimental & Clinical Cancer Research : CR, 2018).
Results are given in words; binding and its absence hold for the method and conditions named. For some assays here: Binding calls can cover weak binding; strength is not graded here. Blank lines part the entries; values can stand above or below the molecule they belong to.

Experiments:
[1] = biological target: T1, recombinant human IL-13Rα2 ECD (human, UniProt Q14627 27-343); assay: ELISA; direct ELISA; rhCHI3L1 or rhIL-13Rα2 ECD coated at 4 μg/ml in PBS; various concentrations of rhCD44v3 ECD added, 1 h at RT; detected with anti-CD44 antibody, absorbance at 450 nm; both purified
T1 construct: Interleukin-13 receptor alpha 2, human, extracellular domain; also called rhIL-13Rα2 ECD; Interleukin-13 receptor alpha 2; source: bought: Sino Biological (Cat. #10350-H08H-20)
T1 sequence (looked up): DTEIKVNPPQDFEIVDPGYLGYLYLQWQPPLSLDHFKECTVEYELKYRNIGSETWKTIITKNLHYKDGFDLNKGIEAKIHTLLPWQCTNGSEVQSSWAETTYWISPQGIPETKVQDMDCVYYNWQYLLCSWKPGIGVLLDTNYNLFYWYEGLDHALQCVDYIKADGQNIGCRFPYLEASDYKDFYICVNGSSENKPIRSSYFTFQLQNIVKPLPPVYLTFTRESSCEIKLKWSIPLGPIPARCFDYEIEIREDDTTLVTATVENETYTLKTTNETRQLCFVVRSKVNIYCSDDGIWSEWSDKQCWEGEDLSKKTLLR

[2] = biological target: RhCD44s extracellular domain (ECD) (human); assay: BLI; Octet K2; by the legend CD44s ECD was immobilized and CHI3L1 (500 μM) or IL-13Rα2 (500 μM) was in the mobile phase (the methods say rhCD44s ECD in the mobile phase); both purified

binding [1]: binds
Molecule: human CD44v3 ECD (21–310aa) (domain or fragment)

binding [2]: no binding (tested: 500 μM)
B1: recombinant human IL-13Rα2 ECD (domain or fragment, UniProt Q14627 27-343)
chain: T1 sequence (looked up)
